Values joined by “and” are separate entries in the source; they are usually repeats but may differ in a detail not shown here. Equal values may be shown once. The campaign covered roughly 240,000 compounds. About 1,300 (0.54%) were called active. The inconclusive results got no clear call from the source; some entries with a clear call stand among them for comparison. The call rests on the fitted dose curve; in most records, active means well fitted inhibition curve with a large enough effect; inconclusive means small, poorly fitted or top-dose-only effect; inactive means flat fitted curve, though single readings scatter. Potencies of inconclusive entries are doubtful fits and often do not repeat. The source holds several records for some structures; these can differ, active in one and inactive in another.
target: ATP-dependent DNA helicase Q1 (Homo sapiens) (UniProt P46063); experiment: qHTS Assay for Inhibitors of RecQ-Like Dna Helicase 1 (RECQ1); conditions: RECQ1 DNA unwinding, red fluorescence kinetic read; activity, negative = inhibition: at 57.3 µM (top of the series); series mostly up to 57.3 µM; further: nearly all actives have a fitted effect of over 30% in size;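 on activity, negative = inhibition: plate controls were vehicle for no effect and no enzyme for full effect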
Method in brief: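 50 nM RECQ1T1 preincubated 15 min with compound in Tris pH 8.0 buffer with MgCl2, DTT, Tween-20 and 2.5 ug/ml poly(dI-dC); started with 200 nM TAMRA/BHQ-2 forked duplex and 2 mM ATP. Unwinding read as fluorescence (525/598 nm), two reads 2 h apart.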
Potency means the concentration at half of the fitted maximal effect.

Chains of the proteins cited; added tags and fusions are not shown. Lines headed by an entry give the natural chain unless they say otherwise; changes in a name come on top.
UniProt P46063: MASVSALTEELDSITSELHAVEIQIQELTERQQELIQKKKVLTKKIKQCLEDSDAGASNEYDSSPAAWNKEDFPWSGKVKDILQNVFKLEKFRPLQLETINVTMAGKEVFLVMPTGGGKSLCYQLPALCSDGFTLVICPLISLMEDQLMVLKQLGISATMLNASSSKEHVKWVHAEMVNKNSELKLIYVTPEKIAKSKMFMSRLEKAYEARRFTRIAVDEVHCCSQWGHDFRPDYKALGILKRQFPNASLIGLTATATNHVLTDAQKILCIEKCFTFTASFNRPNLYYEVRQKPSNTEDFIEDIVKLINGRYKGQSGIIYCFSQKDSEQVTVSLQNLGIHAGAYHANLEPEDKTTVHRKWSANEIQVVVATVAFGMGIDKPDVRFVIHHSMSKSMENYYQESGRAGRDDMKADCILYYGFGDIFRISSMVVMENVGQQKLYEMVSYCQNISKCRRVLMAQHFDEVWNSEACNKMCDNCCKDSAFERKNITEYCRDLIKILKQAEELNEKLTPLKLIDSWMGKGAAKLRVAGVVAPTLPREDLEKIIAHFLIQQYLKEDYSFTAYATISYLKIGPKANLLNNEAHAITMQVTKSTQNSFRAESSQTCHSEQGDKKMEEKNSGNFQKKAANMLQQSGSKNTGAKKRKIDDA

SMILES	Potency	activity, negative = inhibition	outcome
Cc1ccc2sc(NC(=O)c3ccc(N4C(=O)CCC4=O)cc3)nc2c1C	inconclusive: 28.2 µM [inhibitor, partial curve]	–	–
CC(=O)Oc1c(C)cc(OCC(O)CNC(C)C)c(C)c1C (configuration not stated)	–	inactive: -1.02%	–
CN1N=C(/C=C/c2ccccc2)CCC1=O	inconclusive: 35.5 µM [inhibitor, single point]	–	–
CC(=O)c1ccc(CCCCCCCCCC(=O)O)s1	inconclusive: 6.31 µM [inhibitor, single point]	–	–
Cc1ccc(CNC(=O)C2=CCN(S(=O)(=O)c3ccc(C)cc3)CC2)cc1	inconclusive: 1.58 µM [inhibitor, full curve]	–	–
CSc1ncc(CN2CCN(C3CCN(C(C)C)CC3)C(CCO)C2)cn1 (configuration not stated)	–	inactive: -6.53%	–
O=C(NCc1ccco1)C1CCCCN1S(=O)(=O)c1ccc(F)cc1 (configuration not stated)	inconclusive: 31.6 µM [inhibitor, single point]	–	–
C=Cc1ccc(C=C)cc1	–	inactive: 3.06%	–
O=C(Nc1ccc(S(=O)(=O)Nc2nccs2)cc1)c1cc(-c2ccccc2Cl)nc2ccccc12	inconclusive: 39.8 µM [inhibitor, single point]	–	–
Cc1nnc(NC(=O)CSc2ccc(-c3ccco3)nn2)s1	inconclusive: 39.8 µM [inhibitor, single point]	–	–
O=C(O)c1cccc(N2C(=O)/C(=C/c3ccc(SCc4ccc(Cl)cc4)o3)SC2=S)c1	active: 22.4 µM	–	–
CCCCCCCCCCCCCCC(C(=O)O)C(O)(CC(=O)OC)C(=O)O (configuration not stated)	inconclusive: 31.6 µM [inhibitor, single point]	–	–
Cc1ccc(S(=O)(=O)N=S(CCO)CCO)cc1	inconclusive: 3.16 µM [inhibitor, partial curve]	–	–
O=C1OC(c2cccs2)=N/C1=C\c1ccc(-c2ccccc2Cl)o1	–	inactive: -11.7%	–
COc1ccc2[nH]c(=O)c(CN(Cc3nnnn3Cc3ccco3)C3CCCCC3)cc2c1	inconclusive: 28.2 µM [inhibitor, single point]	–	–
COc1cc(OC)c2cc(C(=O)N/N=C/c3cccc(OC)c3O)[nH]c2c1	–	inactive: -2.89%	–
O=C(C1=NN[C@@H]2C(=O)N(c3cccc(C(F)(F)F)c3)C(=O)[C@H]12)C(c1ccccc1)c1ccccc1	active: 28.2 µM	–	–
O=C(COC(=O)C1CC(=O)N(Cc2ccco2)C1)c1ccc(OC(=O)c2ccco2)cc1 (configuration not stated)	–	inactive: -0.811%	–
O=C(O)CC/C(=C\c1ccc(N2CCCC2)c([N+](=O)[O-])c1)c1nc2ccccc2s1	inconclusive: 39.8 µM [inhibitor, single point]	–	–
Cc1cccc(NC(=O)c2cc(-c3ccco3)nc3ccccc23)n1	–	–	inactive
Oc1c(Cl)cc(Cl)c(Cl)c1Cc1c(O)c(Cl)cc(Cl)c1Cl	inconclusive: 39.8 µM [inhibitor, single point] and inconclusive: 35.5 µM [inhibitor, single point]	–	–
Cc1cc(O)c(/C=N/Nc2cccc(Cl)c2)c(=O)o1	inconclusive: 39.8 µM [inhibitor, single point]	–	–
CCCCC[C@H](O)/C=C/C1=C(CCCCCCC(=O)O)C(=O)CC1	active: 10 µM	–	–
CC(Oc1cccc(NC(=O)c2cccs2)c1)C(=O)c1ccccc1 (configuration not stated)	inconclusive: 35.5 µM [inhibitor, single point]	–	–

SMILES	Potency	activity, negative = inhibition	outcome
O=C(NCc1ccccc1)N(Cc1cc2cc3c(cc2[nH]c1=O)OCCO3)CC1CCCO1 (configuration not stated)	inconclusive: 0.794 µM [inhibitor, single point]	–	–
COc1ccc(CCNC(=O)CSc2ccc(-c3ccco3)nn2)cc1	active: 35.5 µM	–	–
CCOc1ccc(NC(=O)N2CCC(c3nc4ccccc4o3)CC2)cc1	inconclusive: 3.55 µM [inhibitor, partial curve, poor fit]	–	–
NNC(=O)c1ccc(CSc2cccc3cccnc23)cc1	–	–	inactive
COC(=O)c1ccc[n+](CC(=O)c2ccc(Br)cc2)c1	inconclusive: 0.178 µM [inhibitor, partial curve, poor fit]	–	–
CCn1c(CSc2nnc(-c3cccnc3)n2-c2ccccc2C)nc2cc(C(=O)O)ccc21	active: 31.6 µM	–	–
Cc1c(NC(=O)c2c(N)sc3c2CCCC3)c(=O)n(-c2ccccc2)n1C	inconclusive: 44.7 µM [inhibitor, single point]	–	–
Cc1cc(C)nc(NC(=O)c2c(C(=O)O)noc2C)n1	inconclusive: 0.0251 µM [inhibitor, partial curve, poor fit]	–	–
CN(C)c1nc(NC2CCC(NC(=O)c3ccc(F)c(F)c3)CC2)nc2ccccc12 (configuration not stated)	–	inactive: 14.5%	–
CCSc1nnc(-c2ccccc2N=Cc2c(C)[nH]n(-c3ccccc3)c2=O)c(=O)[nH]1	inconclusive: 39.8 µM [inhibitor, single point]	–	–
Brc1ccc(C2Nc3cccc4cccc(c34)N2)o1	inconclusive: 0.794 µM [inhibitor, full curve]	–	–
COCc1[nH]c(=S)c(C#N)cc1C(=O)OC	–	inactive: 17.4%	–
COc1cc(/C=N/Nc2nc3ccccc3s2)cc([N+](=O)[O-])c1O	–	inactive: 7.27%	–
Cc1nc2c(C)cccc2cc1C(=O)N/N=C/c1cccnc1	inconclusive: 31.6 µM [inhibitor, single point]	–	–
C=CCc1cccc(/C=N/NC(=O)CN2CCN(Cc3ccccc3)CC2)c1O	active: 22.4 µM	–	–
Cc1ccc(CNC(=O)CCS(=O)(=O)c2ccc(Br)cc2)cc1	inconclusive: 35.5 µM [inhibitor, single point]	–	–
COc1cc(C(=O)NC(=S)NNC(=O)c2cnccn2)cc(OC)c1OC	–	inactive: -0.103%	–
Nc1ccc(N)c(Cl)c1	active: 22.4 µM	–	–
Cc1nnc(NC(=O)c2sc3nc(-c4cccs4)cc(C(F)(F)F)c3c2N)s1	inconclusive: 7.08 µM [inhibitor, full curve]	–	–
CC(=O)Nc1sc2c(c1-c1nc3ccccc3s1)CCN(C(C)C)C2	inconclusive: 35.5 µM [inhibitor, single point]	–	–
O=C1c2ccccc2C(=O)N1CN(C(=O)COc1ccccc1)c1ccccc1	inconclusive: 6.31 µM [inhibitor, single point]	–	–
Cc1ccc(C(C)n2cc(C(=O)NCc3ccncc3)nn2)cc1 (configuration not stated)	inconclusive: 0.251 µM [inhibitor, full curve]	–	–
CCOC(=O)C1=C(CSc2nc3c(cc2C#N)CN(C)CC3)OC(N)=C(C#N)C1c1ccncc1 (configuration not stated)	inconclusive: 22.4 µM [inhibitor, single point]	–	–
COc1cccc(-c2csc(N3CCN(CC(=O)Nc4ccc5c(c4)OCO5)CC3)n2)c1	inconclusive: 7.94 µM [inhibitor, full curve]	–	–

SMILES	Potency	activity, negative = inhibition	outcome
O=C(Nc1ccc(S(=O)(=O)Nc2nccs2)cc1)c1ccc(=O)[nH]c1	inconclusive: 35.5 µM [inhibitor, single point]	–	–
O=C(O)CC12CC3CC(C1)CC(n1ncc(NCc4ccc5c(c4)OCO5)c(Cl)c1=O)(C3)C2	active: 39.8 µM	–	–
CCn1c(CSc2ncn[nH]2)nc2cc(C(=O)O)ccc21	–	inactive: -28.8%	–
Nc1ccc(OCCCc2c(N)nc(N)nc2N)cc1	–	inactive: -13.2%	–
OC(CNCc1ccco1)Cn1c2ccccc2c2ccccc21 (configuration not stated)	–	–	inactive
FC(F)(F)c1ccccc1-c1cncnc1NCCc1cnc[nH]1	inconclusive: 39.8 µM [inhibitor, single point]	–	–
O=c1/c(=C/c2ccco2)sc2nc(-c3ccccc3Br)nn12	active: 15.8 µM	–	–
COc1ccccc1NC(=O)Cc1noc(CSc2cc(C)c3ccccc3n2)n1	inconclusive: 25.1 µM [inhibitor, partial curve, poor fit]	–	–
CC(C)=NNC(=O)C1=NNC(=O)C1	inconclusive: 31.6 µM [inhibitor, single point]	–	–
Cc1cc(C)c(C#N)c(SC(F)F)n1	inconclusive: 0.891 µM [inhibitor, partial curve, poor fit]	–	–
CCCCN1C(=O)N(C)C2NC(=O)NC21 (configuration not stated)	–	inactive: -12.1%	–
C=CCN(CC=C)C(=O)Cc1ccc(F)cc1	–	–	inactive
CC(/C=N/NC(=O)CSc1nc2ccccc2n1C)=C\c1ccco1	inconclusive: 28.2 µM [inhibitor, single point]	–	–
O=C(Nc1cccnc1Cl)c1ccc(=O)oc1	inconclusive: 39.8 µM [inhibitor, single point]	–	–
CN(C)S(=O)(=O)c1cccc(C(=O)C2=C3SC=C(c4ccccc4)N3CC2)c1	inconclusive: 5.01 µM [inhibitor, partial curve, poor fit]	–	–
CCOC(=O)c1cc2c(=O)n3ccccc3nc2n(Cc2ccco2)c1=NC(=O)c1ccc(OC)cc1	inconclusive: 39.8 µM [inhibitor, single point]	–	–
CCN1C(=O)C(CC(=O)Nc2ccc(F)cc2)N(CCc2ccc(OC)cc2)C1=S (configuration not stated)	active: 22.4 µM	–	–
Nc1ccc(-c2nc3cc(N)ccc3n2CCO)cc1	–	inactive: 1.27%	–
Cc1ccc(-c2nnc(SCC(=O)NCC3CCCO3)n2C)cc1 (configuration not stated)	inconclusive: 0.316 µM [inhibitor, full curve, poor fit]	–	–
O=c1[nH][nH]cc1C=Nc1ccccc1Cl	–	inactive: -0.209%	–
Cc1cc(O)c2c(c1)C(=O)c1cccc(O)c1C2=O	active: 7.08 µM	–	–
C[C@@](N)(Cc1ccc(O)c(O)c1)C(=O)O	active: 11.2 µM	–	–
Cc1cccc(N2C(=O)CCC2=O)n1	inconclusive: 0.355 µM [inhibitor, partial curve, poor fit]	–	–
C[C@H]1O[C@@H](O[C@H]2[C@@H](O)C[C@H](O[C@H]3[C@@H](O)C[C@H](O[C@H]4CC[C@@]5(C)[C@H](CC[C@@H]6[C@@H]5C[C@@H](O)[C@]5(C)[C@@H](C7=CC(=O)OC7)CC[C@]65O)C4)O[C@@H]3C)O[C@@H]2C)C[C@H](O)[C@@H]1O	inconclusive: 3.98 µM [inhibitor, partial curve, poor fit]	–	–

Some of these compounds in order of length of the SMILES, smallest number first.
SMILES	Potency	activity, negative = inhibition	outcome
Cc1cccc(N2C(=O)CCC2=O)n1	inconclusive: 0.355 µM [inhibitor, partial curve, poor fit]	–	–
CCCCN1C(=O)N(C)C2NC(=O)NC21 (configuration not stated)	–	inactive: -12.1%	–
Nc1ccc(-c2nc3cc(N)ccc3n2CCO)cc1	–	inactive: 1.27%	–

— PubChem BioAssay AID2549 (National Center for Advancing Translational Sciences (NCATS), 2010)
